Results are given in words; binding and its absence hold for the method and conditions named. Some results given as binding are weak or reduced against the parent protein; the word gives no strength.
Target: EPHA2 (human (endogenous in AGS and MKN45)) (UniProt P29317)
Assay: flow cytometry on cells; AGS and MKN45 cells (1 × 10^5) in PBS with 1% BSA stained with Ephrin A1-Fc on ice for 30 min, FITC-conjugated secondary antibody; cells transfected with control or EPHA2 siRNAs (Fig. 4b), or with C1GALT1 siRNA / C1GALT1 knockout (Fig. 6f); only the binder purified

Chains of the proteins cited; added tags and fusions are not shown. Residues count along the entry.
UniProt P29317, residues 24-976: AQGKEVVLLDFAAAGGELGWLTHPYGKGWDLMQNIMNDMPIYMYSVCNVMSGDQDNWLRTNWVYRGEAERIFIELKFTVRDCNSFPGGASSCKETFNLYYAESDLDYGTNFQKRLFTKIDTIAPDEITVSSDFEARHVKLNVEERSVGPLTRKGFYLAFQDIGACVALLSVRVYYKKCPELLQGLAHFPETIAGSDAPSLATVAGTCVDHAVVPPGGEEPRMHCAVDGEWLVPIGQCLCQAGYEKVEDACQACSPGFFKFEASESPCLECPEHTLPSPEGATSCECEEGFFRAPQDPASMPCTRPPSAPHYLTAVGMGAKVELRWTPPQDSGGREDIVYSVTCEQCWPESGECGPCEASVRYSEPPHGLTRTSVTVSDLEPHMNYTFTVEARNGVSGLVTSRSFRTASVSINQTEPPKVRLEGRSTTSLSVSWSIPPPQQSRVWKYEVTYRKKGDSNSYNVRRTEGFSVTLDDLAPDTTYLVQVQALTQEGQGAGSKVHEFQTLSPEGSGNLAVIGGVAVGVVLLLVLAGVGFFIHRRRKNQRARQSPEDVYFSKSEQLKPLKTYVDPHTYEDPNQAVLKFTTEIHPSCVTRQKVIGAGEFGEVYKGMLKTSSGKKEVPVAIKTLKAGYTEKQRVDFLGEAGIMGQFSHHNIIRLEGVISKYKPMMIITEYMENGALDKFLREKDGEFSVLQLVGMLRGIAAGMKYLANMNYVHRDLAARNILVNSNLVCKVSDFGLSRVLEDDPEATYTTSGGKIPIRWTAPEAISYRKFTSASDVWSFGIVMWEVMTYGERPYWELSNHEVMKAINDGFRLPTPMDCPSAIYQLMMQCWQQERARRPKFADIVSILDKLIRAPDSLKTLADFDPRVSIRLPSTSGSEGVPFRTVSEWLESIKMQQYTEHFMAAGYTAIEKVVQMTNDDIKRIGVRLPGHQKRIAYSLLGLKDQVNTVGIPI
UniProt P20827, residues 19-182: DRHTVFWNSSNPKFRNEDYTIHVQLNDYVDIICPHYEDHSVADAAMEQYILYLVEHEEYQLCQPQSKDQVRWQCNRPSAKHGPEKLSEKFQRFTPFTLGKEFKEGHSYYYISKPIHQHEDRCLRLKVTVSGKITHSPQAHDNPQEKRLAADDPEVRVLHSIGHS

In the case of “soluble Ephrin A1-Fc (from UniProt P20827 19-182) (Fc fusion)”, the binding is reported as “binds”.

— paper PMC7098884
